Assay results published in PubChem BioAssay AID2551 (National Center for Advancing Translational Sciences (NCATS), 2010).
Hit rate of the full screen: of about 310,000 compounds, about 17,000 (5.5%) were called active. Inconclusive results, whose numbers are uncertain, are shown with a selection of clear calls. The call rests on the fitted dose curve; in most records, active means well fitted inhibition curve with a large enough effect; inconclusive means small, poorly fitted or top-dose-only effect, or effect the other way; inactive means no such curve, though single readings can be large or run the other way. Where the call is inconclusive, the potency comes from a doubtful curve fit.

Chains of the proteins cited; added tags and fusions are not shown. Lines headed by an entry give the natural chain unless they say otherwise; changes in a name come on top.
UniProt P51450: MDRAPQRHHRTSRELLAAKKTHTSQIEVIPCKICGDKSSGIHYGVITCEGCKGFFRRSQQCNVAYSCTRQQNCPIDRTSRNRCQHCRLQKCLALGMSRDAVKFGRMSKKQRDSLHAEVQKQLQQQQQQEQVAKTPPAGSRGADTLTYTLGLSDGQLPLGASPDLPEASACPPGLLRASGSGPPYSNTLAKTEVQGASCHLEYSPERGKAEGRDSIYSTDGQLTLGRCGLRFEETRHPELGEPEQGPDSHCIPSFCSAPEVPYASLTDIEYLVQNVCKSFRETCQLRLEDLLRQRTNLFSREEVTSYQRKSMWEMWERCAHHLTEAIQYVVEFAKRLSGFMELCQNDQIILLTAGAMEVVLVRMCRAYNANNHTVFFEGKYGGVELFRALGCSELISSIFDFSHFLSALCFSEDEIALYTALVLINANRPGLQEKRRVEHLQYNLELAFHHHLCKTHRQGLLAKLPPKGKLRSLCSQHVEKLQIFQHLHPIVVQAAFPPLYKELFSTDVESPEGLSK

Each compound was assayed against Nuclear receptor ROR-gamma (Mus musculus) (UniProt P51450) (assay: qHTS for inhibitors of ROR gamma transcriptional activity). Conditions: Drosophila S2 Gal4-RORgamma UAS-luciferase reporter, 20 h; activity change, negative = inhibition: at 53.6 µM (top of the series).
How it was run: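 Read-out: Photinus luciferase luminescence; inhibitors lower reporter signal. Insect Schneider cells with Gal4-ROR gamma fusion under metallothionein promoter, UAS reporter; 700 uM final copper sulfate induction, 20 hr, ambient temperature.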
Further: nearly all actives have a fitted effect of over 60% in size.
On the % scale 0 is the no-effect control and ±100 the full control effect; potency means the concentration at half of the fitted maximal effect.

Q: For CCn1cc(C(=O)O)c(=O)c2cc(F)c(N3CCN(S(=O)(=O)c4ccc(Br)cc4)CC3)cc21, which Potency is on record?
A: inconclusive: 35.5 µM [activator, single point]

Q: Which Potency does the source give for N#CC(C#N)=Cc1ccc(OC(=O)c2ccccn2)cc1 here?
A: active: 12.6 µM

Q: With COc1ccccc1N(CC(=O)Nc1ccc(S(=O)(=O)N2CCCCC2)cc1)S(C)(=O)=O as the compound, how does the Potency read?
A: inconclusive: 35.5 µM [activator, single point]

Q: For COc1ccccc1NC(=O)CSc1nnc(CNC(=O)COc2ccc(Cl)cc2)o1, which Potency is on record?
A: inconclusive: 35.5 µM [inhibitor, single point]

Q: With CCCc1cc(-c2n[nH]c(C)c2-c2ccc(C(=O)OCC)o2)c(O)cc1O as the compound, how does the Potency read?
A: inconclusive: 0.794 µM [activator, full curve, poor fit]

Q: COc1cc2c(cc1/C=C1/NC(=O)N(c3ccccc3)C1=O)OCO2 was tested. Which “activity change, negative = inhibition” value did it give?
A: inactive: 1.89%

Q: S=C1NNC2(CC3CC2C2CCCC32)NN1 (stereo not drawn) was tested. Which Potency did it give?
A: inconclusive: 11.2 µM [inhibitor, single point]

Q: Which Potency does the source give for O=[N+]([O-])c1ccc(Cl)c(/C=N/n2c(COc3ccccc3)n[nH]c2=S)c1 here?
A: inconclusive: 15.8 µM [inhibitor, single point]

Q: Which activity change, negative = inhibition does the source give for O=C1C=C[C@@H](O)[C@@H]2[C@H]3C(=O)N(c4ccc(F)cc4F)C(=O)[C@@H]3CC[C@@H]12 here?
A: inactive: -9.99% [at 10 µM]

Q: Which Potency does the source give for COc1cc(NC(=S)Nc2ccc(OC(F)F)cc2)cc(OC)c1 here?
A: active: 10 µM

Q: O=C(O)c1cccc(N2C(=O)c3cccc(Oc4ccc(Cl)cc4)c3C2=O)c1 was tested. Which Potency did it give?
A: inconclusive: 22.4 µM [activator, partial curve, poor fit]

Q: How did the Potency turn out when S=C(NCCc1ccccc1)NC1CCCCCC1 was run?
A: active: 2.82 µM

Q: How did the Potency turn out when CNS(=O)(=O)c1cccc(C(=O)Nc2cccc(Cl)c2)c1 was run?
A: inconclusive: 15.8 µM [activator, partial curve]

Q: How did the Potency turn out when COc1ccc(-c2nnc3n(CCc4ccccc4)c(=O)c4ccccc4n23)c(OC)c1 was run?
A: inconclusive: 2.51 µM [activator, partial curve]

Q: With CSc1ccc(/C=N/NC(=O)c2sccc2C)cc1 as the compound, how does the Potency read?
A: active: 8.91 µM

Q: For Cc1ccc(/C=N\n2c(-c3ccccc3)n[nH]c2=S)s1, which Potency is on record?
A: active: 3.98 µM

Q: Which “activity change, negative = inhibition” value does the source give for NC(CCC(=O)N[C@@H](CS)C(=O)NCC(=O)O)C(=O)O (stereo partly drawn) here?
A: inactive: -16.4%

Q: For COc1ccc(/C=N/Nc2cc(N3CCCC3)nc(N3CCCC3)n2)cc1, which Potency is on record?
A: active: 12.6 µM

Q: With CCc1nc(C)cn1S(=O)(=O)c1ccc(Br)cc1 as the compound, how does the Potency read?
A: inconclusive: 4.47 µM [activator, full curve, poor fit]

Q: With CC(=O)Nc1ccc(N2C(C(C)=O)=NN(c3ccc(Cl)cc3)C2c2sccc2C)cc1 (stereo not drawn) as the compound, how does the Potency read?
A: inconclusive: 7.08 µM [activator, partial curve]

Q: With Cc1ccc(S(=O)(=O)NCc2ccccn2)c(C)c1 as the compound, how does the Potency read?
A: inconclusive: 12.6 µM [inhibitor, partial curve, poor fit]

Q: With CC(C)(CNc1ccc([N+](=O)[O-])cc1Cl)CNS(C)(=O)=O as the compound, how does the Potency read?
A: inconclusive: 25.1 µM [inhibitor, single point]

Q: With Cc1ccc(-c2noc(CCC(=O)NC3CCCC3)n2)cc1 as the compound, how does the Potency read?
A: inconclusive: 31.6 µM [activator, single point]

Q: With Cc1ccc(COCC(CC(C)C)N2CCN(C(=O)c3cccc(C(F)(F)F)c3)CCC2=O)cc1 (stereo not drawn) as the compound, how does the Potency read?
A: inconclusive: 15.8 µM [activator, single point]

Q: Which Potency does the source give for COc1ccc(C(=O)CSc2nnc(NC(=O)C3CC(=O)N(c4ccccc4)C3)s2)cc1 (stereo not drawn) here?
A: inconclusive: 11.2 µM [activator, partial curve, poor fit]

Q: With Cc1ccc(NC(=O)/C=C/c2cccc([N+](=O)[O-])c2)nc1 as the compound, how does the Potency read?
A: inconclusive: 6.31 µM [inhibitor, single point]

Q: How did the “activity change, negative = inhibition” value turn out when CCOC(=O)c1cnc2c(OC)cccc2c1N1CCN(c2ccc(OC)cc2)CC1 was run?
A: inactive: -5.17%

Q: c1ccc(N2CCN(c3nc(NCc4ccco4)c4ccccc4n3)CC2)cc1 was tested. Which Potency did it give?
A: inconclusive: 35.5 µM [inhibitor, single point]

Q: How did the Potency turn out when O=C(N/N=C/c1cc(Br)ccc1O)C(=O)Nc1ccccc1OC(F)(F)C(F)F was run?
A: active: 0.794 µM

Q: How did the Potency turn out when CCCn1c(N)c(C(=O)CSc2nc(C)cs2)c(=O)n(C)c1=O was run?
A: inconclusive: 0.282 µM [activator, full curve, poor fit]

Q: With COc1ccc(OCc2cc(C(=O)NC3CCOCC3)no2)c2ccccc12 as the compound, how does the “activity change, negative = inhibition” value read?
A: inactive: 16%

Q: S=C(NCC1CCCO1)N1CCN(c2nc(-c3ccc(Cl)cc3)cs2)CC1 (stereo not drawn) was tested. Which Potency did it give?
A: inconclusive: 25.1 µM [inhibitor, single point]

Q: For O=C(CCCCCN1C(=O)c2ccccc2C1=O)Oc1ccc2c3c(c(=O)oc2c1)CCC3, which “activity change, negative = inhibition” value is on record?
A: inactive: -28.2%

Q: Which activity change, negative = inhibition does the source give for CCCCNC(=O)CCn1c(=O)c2ccccc2n(Cc2ccc(Cl)cc2)c1=O here?
A: inactive: -3.78% [at 10 µM]

Q: How did the Potency turn out when O=C(Nc1ccc(-c2nc3ccccc3o2)c(O)c1)c1cc(-n2cnnc2)ccc1Cl was run?
A: active: 8.91 µM

Q: CCCCN(C)CCNC(=O)c1cc2c(=O)[nH]c3ccccc3c2n1C was tested. Which Potency did it give?
A: inconclusive: 20 µM [inhibitor, single point]

Q: For Cc1cc2nc3c(=O)[nH]c(=O)nc-3n(C)c2cc1C=O, which Potency is on record?
A: active: 10 µM

Q: With COc1ccc(C(=O)Nc2cc(OC)c(NC(=O)c3ccco3)cc2OC)cc1 as the compound, how does the Potency read?
A: inconclusive: 10 µM [inhibitor, single point]

Q: How did the Potency turn out when COc1ccc(/C=N/NC(=O)c2ccn[nH]2)cc1COc1ccc(Cl)cc1Cl was run?
A: inconclusive: 17.8 µM [activator, single point]

Q: How did the Potency turn out when Cn1nc(C(C)(C)C)cc1C(=O)NCc1ccc(N2CCCC2=O)cc1 was run?
A: inconclusive: 5.62 µM [inhibitor, partial curve, poor fit]

Q: How did the Potency turn out when COC(=O)CSCC(=O)Nc1nnc(-c2ccccc2C)s1 was run?
A: inconclusive: 11.2 µM [inhibitor, single point]

Q: O=C(Nc1ccn(Cc2c(F)c(F)c(F)c(F)c2F)n1)c1ccc(COc2ccccc2Cl)cc1 was tested. Which Potency did it give?
A: inconclusive: 10 µM [activator, partial curve]

Q: How did the “activity change, negative = inhibition” value turn out when O=C1CCCc2ccccc2N1Cc1ccccc1 was run?
A: inactive: 9.92%

Q: Which Potency does the source give for COc1cc(C)c(S(=O)(=O)Nc2ccc(CC(=O)O)cc2)cc1C here?
A: inconclusive: 0.794 µM [activator, full curve]

Q: With CCc1cccc(NC(=O)C2CCN(S(=O)(=O)c3cccs3)CC2)c1 as the compound, how does the Potency read?
A: inconclusive: 0.447 µM [inhibitor, single point]

Q: How did the Potency turn out when COc1ccc(C(=O)NC(=S)N2CCC(C)CC2)cc1Br was run?
A: active: 0.631 µM

Q: How did the Potency turn out when O=C(CCN1C(=O)/C(=C/c2ccccc2Cl)SC1=S)NC1C=CS(=O)(=O)C1 (stereo not drawn) was run?
A: inconclusive: 14.1 µM [inhibitor, single point]

Q: For O=C(Nc1cc(Cl)cc(Cl)c1)c1coc(=O)c(Br)c1, which Potency is on record?
A: inconclusive: 8.91 µM [activator, partial curve]

Q: Which Potency does the source give for CN1C(=O)/C(=C2\SC(=S)N(NC(=O)c3cccnc3)C2=O)c2ccccc21 here?
A: inconclusive: 14.1 µM [inhibitor, partial curve]

Q: For COc1ccc2c(=O)c(Oc3ccc(C(=O)O)cc3)c(C(F)(F)F)oc2c1, which Potency is on record?
A: inconclusive: 5.62 µM [inhibitor, single point]

Q: Which Potency does the source give for O=C1CCCN1c1ncc(S(=O)(=O)c2ccc([N+](=O)[O-])cc2)s1 here?
A: inconclusive: 35.5 µM [inhibitor, single point]

Q: For COC(=O)c1sccc1NC(=O)Nc1cccc(F)c1, which Potency is on record?
A: inconclusive: 11.2 µM [activator, single point]

Q: For CCc1cccc(NS(=O)(=O)c2ccc3c(c2)CCC(=O)N3)c1, which Potency is on record?
A: inconclusive: 35.5 µM [activator, single point]

Q: Which Potency does the source give for c1ccc(-c2ccc(C3=Nn4c(nnc4-c4cc(-c5ccccc5)n[nH]4)SC3)cc2)cc1 here?
A: inconclusive: 11.2 µM [activator, partial curve]

Q: With CCCN(CCC)C(=S)Nc1cc(C(=O)OC)ccc1C(=O)OC as the compound, how does the Potency read?
A: inconclusive: 14.1 µM [inhibitor, single point]

Q: Which “activity change, negative = inhibition” value does the source give for Clc1ccc(Cn2c(-c3cccnc3Cl)nc3ccccc32)c(Cl)c1 here?
A: inactive: -26%

Q: CSc1cccc(CNC(=O)C2CCC(=O)N(CC3CCCCC3)C2)c1 (stereo not drawn) was tested. Which “activity change, negative = inhibition” value did it give?
A: inactive: 24%

Q: Which Potency does the source give for O=C(CSc1nnc(-c2ccc(Br)cc2)o1)Nc1cccc2ccccc12 here?
A: inconclusive: 35.5 µM [inhibitor, single point]

Q: With COc1ccc(-c2cnc3ccccc3n2)cc1NC(=O)CNC(=O)c1ccccc1 as the compound, how does the Potency read?
A: inconclusive: 22.4 µM [inhibitor, single point]

Q: Cc1cc(C)nc(NC(=S)Nc2ccc(Br)cc2Cl)c1 was tested. Which Potency did it give?
A: active: 0.562 µM

Q: Cn1c(N)c(C(=O)CSc2ccc3c(c2)OCCO3)c(=O)n(C)c1=O was tested. Which Potency did it give?
A: inconclusive: 12.6 µM [activator, partial curve]

Q: With C/C(CC(=O)Nc1cccc(C(F)(F)F)c1)=N\NC(=O)c1cnccn1 as the compound, how does the “activity change, negative = inhibition” value read?
A: inactive: 26%

Q: Which Potency does the source give for Cc1oc2c(C)c3oc(=O)c(CCC(=O)NCCCCCC(=O)O)c(C)c3cc2c1C here?
A: inconclusive: 11.2 µM [inhibitor, partial curve, poor fit]

Q: Which Potency does the source give for O=C(CP(=O)(c1ccccc1)c1ccccc1)N/N=C/c1cc(Br)cc(Br)c1O here?
A: active: 1.12 µM

Q: With COc1ccc2c(c1OC)C(=O)OC2Nc1nc(-c2ccccc2)cs1 (stereo not drawn) as the compound, how does the Potency read?
A: inconclusive: 22.4 µM [inhibitor, single point]

Q: With CC(=C1C(=O)c2ccccc2C1=O)N1CCC(C(N)=O)(N2CCCCC2)CC1 as the compound, how does the “activity change, negative = inhibition” value read?
A: inactive: 0.91%

Q: COc1ccc(NC(=O)COc2ccc(C(=O)c3ccc(F)cc3)cc2)cc1S(N)(=O)=O was tested. Which “activity change, negative = inhibition” value did it give?
A: inactive: 1.06%

Q: For O=C(c1cc(COc2cccc3cnccc23)on1)N1CCCC(CCCO)C1 (stereo not drawn), which Potency is on record?
A: inconclusive: 14.1 µM [inhibitor, single point]
